Source: PubChem BioAssay AID1347075 (National Center for Advancing Translational Sciences (NCATS), 2019)
Hit rate of the full screen: of about 400,000 compounds, about 5,500 (1.4%) were called active. The inconclusive results got no clear call from the source; some entries with a clear call stand among them for comparison. Calls follow the shape of the dose curve; as a rule, active = well fitted cell-killing curve with a large enough effect; inconclusive = small, poorly fitted or top-dose-only effect, or effect the other way; inactive = flat fitted curve, though single readings scatter. Where the call is inconclusive, the potency comes from a doubtful curve fit.
% is scaled to controls: 0 for no effect and ±100 for the full control effect; potency is read from the fitted curve at half-maximal effect.

Assay: qHTS assay for MDR1-selective chemotherapeutics: Primary screen using the parental adenocarcinoma cell KB-3-1; also: nearly all actives have a fitted effect of over 60% in size
Conditions: KB-3-1 viability, CellTiter-Glo ATP luminescence, 72 h; activity change, negative = cytotoxic: at 46.1 µM (top of the series)
How it was run: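 72 h, 37 °C compound treatment of KB-3-1 parental cells; CellTiter-Glo added, 10 min, luminescence read. Data corrected against DMSO-only plates and normalized before curve fitting.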
For `Fc1ccc(-c2noc3ncnc(NCc4ccc(Cl)cc4)c23)cc1`, the “activity change, negative = cytotoxic” value was inactive: -0.0528%.
In the case of `OC(COc1ccc(CNCCc2ccc(C(F)(F)F)cc2)cc1)CN1CCCCC1` (stereo not drawn), the Potency is reported as inconclusive: 20.6 µM [cytotoxic, single point].
For `CN1CCc2[nH]c3ccc(Cl)cc3c2C1`, the “activity change, negative = cytotoxic” value was inactive: 7.35%.
In the case of `O=C(Cc1ccccc1)NC(Nc1cccc2ccccc12)C(Cl)(Cl)Cl` (stereo not drawn), the “activity change, negative = cytotoxic” value is reported as inactive: -13.5%.
For `CC1(c2ccc(Cl)cc2)NC(=O)N(CC(=O)NC(=O)NCc2ccco2)C1=O` (stereo not drawn), the “activity change, negative = cytotoxic” value was inactive: 5.47%.
In the case of `COc1ccc(OC)c(NC(=O)CN(c2ccc(C(C)C)cc2)S(=O)(=O)c2c(C)noc2C)c1`, the Potency is reported as inconclusive: 23.1 µM [cytotoxic, single point].
For `COc1ccc(-c2cc(C(C)=O)c(C)n2CCC(=O)Nc2cc(Cl)ccc2C)cc1`, the “activity change, negative = cytotoxic” value was inactive: -8.97%.
In the case of `CCOc1ccccc1NC(=O)C1=C(C)NC(=S)NC1c1cccs1` (stereo not drawn), the “activity change, negative = cytotoxic” value is reported as inactive: 0.84%.
For `OC(COc1ccc2cc(Br)ccc2c1)CN1CCCC1` (stereo not drawn), the Potency was inconclusive: 14.6 µM [cytotoxic, partial curve, poor fit].
With `O=C(COc1ccccc1)Nc1ccc2nc(SCCOc3ccccc3)sc2c1` the “activity change, negative = cytotoxic” value was inactive: 4.56%.
With `CC(=O)Oc1ccc(-c2csc(Nc3cccc(C)n3)n2)cc1` the Potency was inconclusive: 18.4 µM [cytotoxic, partial curve, poor fit].
With `Cc1ccc(Cl)cc1N1CCN(C(=O)c2ccc(CS(=O)(=O)c3ccccc3C)o2)CC1` the Potency was inconclusive: 29.1 µM [cytotoxic, single point].
For `CC1=CC(C)(C)N2C(=O)C3(C(C#N)=C(N)Oc4cc(C)oc(=O)c43)c3cccc1c32` (stereo not drawn), the Potency was inconclusive: 29.1 µM [cytotoxic, single point].
For `CCOC(=O)C1(CCOc2ccccc2)CCN(C(=O)c2ccc(-n3cccn3)cc2)CC1`, the “activity change, negative = cytotoxic” value was inactive: 1.78%.
In the case of `COc1cccc(/C=N/NC(=O)Cn2nc(C)c([N+](=O)[O-])c2C)c1O`, the Potency is reported as inconclusive: 29.1 µM [cytotoxic, single point].
With `COCCCNC(=O)c1cc(C(=O)c2c(-c3c(Cl)cccc3Cl)noc2C)c[nH]1` the Potency was inconclusive: 29.1 µM [cytotoxic, single point].
In the case of `O=C(NC(=S)Nc1cccnc1)c1ccccc1`, the Potency is reported as inconclusive: 29.1 µM [rising, single point].
With `COc1cc2ccccc2cc1C(=O)Nc1ccc(Cc2ccncc2)cc1` the Potency was active: 18.4 µM.
With `NC(=O)c1cc2cc(Cc3ccccc3Cl)ccc2oc1=O` the “activity change, negative = cytotoxic” value was inactive: -0.698%.
For `CCN1c2ccccc2-c2nc3ccccc3n2C1c1cccs1` (stereo not drawn), the Potency was inconclusive: 20.6 µM [cytotoxic, single point].
For `Cc1ccccc1C1CC(=O)Nc2ccc3ccccc3c21` (stereo not drawn), the Potency was inconclusive: 29.1 µM [cytotoxic, single point].
With `COc1ccc(NC(=O)C2(C)CCN2Cc2cccc(OC)c2OC)cc1OC` (stereo not drawn) the Potency was inconclusive: 29.1 µM [cytotoxic, single point].
In the case of `CC1OC(COCc2ccccc2)Cc2[nH][nH]c(=O)c21` (stereo not drawn), the Potency is reported as inconclusive: 25.9 µM [rising, partial curve, poor fit].
For `Cc1cccc(NC(=O)N2CC(=O)Nc3sc4c(c3C2c2ccccc2)CCCC4)c1C` (stereo not drawn), the Potency was inconclusive: 29.1 µM [cytotoxic, single point].
In the case of `CN(C)CCNC(=O)c1cccc2nc3cccc(F)c3nc12`, the Potency is reported as active: 4.11 µM.
In the case of `Cc1ccc2oc(-c3ccc(NC(=O)COc4ccccc4)cc3O)nc2c1`, the activity change, negative = cytotoxic is reported as inconclusive: -27%.
With `Cc1ccc(Cl)cc1N1CCN(C(=O)c2ccc3c(c2)N(Cc2ccc(F)cc2)CCS3)CC1` the Potency was inconclusive: 29.1 µM [cytotoxic, single point].
With `CCCCn1cc2c(c1-c1ccc(Cl)cc1)c(=O)n(C)c(=O)n2C` the “activity change, negative = cytotoxic” value was inactive: 0%.
In the case of `O=C1CCC[C@@H]2C[C@@]3(C[C@@H]4CCN1[C@H]24)Nc1cc(Cl)ccc1NC3=NC1CCCCC1`, the Potency is reported as “inactive”.
In the case of `O=[N+]([O-])c1ccc(-c2nc3ccc([N+](=O)[O-])cc3[nH]2)cc1`, the “activity change, negative = cytotoxic” value is reported as inactive: 0%.
In the case of `O=CNc1cc(-c2ccccc2Oc2ccccc2)cn2c(-c3ccc(F)cc3)cnc12`, the Potency is reported as inconclusive: 32.6 µM [cytotoxic, partial curve, poor fit].
With `O=C(Nc1ccc(OC(F)(F)F)cc1)c1cc2ccccn2n1` the Potency was active: 10.3 µM.
In the case of `CC(C)CCN1CCN(Cc2cccc(C(F)(F)F)c2)CC1CCO` (stereo not drawn), the “activity change, negative = cytotoxic” value is reported as inactive: -1.69%.
In the case of `Cc1cccn2c(=O)c3cc(S(=O)(=O)c4ccc(F)cc4)c(=N)n(Cc4ccco4)c3nc12`, the “activity change, negative = cytotoxic” value is reported as inactive: -15.1%.
With `CC(C)c1ccc(O)c(NC(=O)c2ncn[nH]2)c1` the “activity change, negative = cytotoxic” value was inactive: 2.12%.
In the case of `CS(=O)(=O)N(CC(O)Cn1c2ccccc2c2ccccc21)c1cccc2ccccc12` (stereo not drawn), the Potency is reported as inconclusive: 18.4 µM [cytotoxic, single point].
For `CCC(CC)NC(=O)c1cc2c(C)nn(Cc3ccccc3Cl)c2s1`, the Potency was inconclusive: 29.1 µM [cytotoxic, single point].
For `O=C(N/N=C/c1ccc(Br)cc1)c1ccc(NC(=O)c2ccccc2)cc1`, the “activity change, negative = cytotoxic” value was inactive: 4.34%.
With `O=c1[nH]c(=S)n(-c2cccc(C(F)(F)F)c2)c(O)c1C=NCCN1CCNCC1` the “activity change, negative = cytotoxic” value was inactive: -4.06%.
With `CN(C)CCOc1ccc(-c2c(-c3ccsc3)sc3ccccc23)cc1` the Potency was inconclusive: 25.9 µM [cytotoxic, single point].
For `O=C(Nc1ncc2c(n1)-c1ccccc1CC2)c1cccc(Cl)c1`, the Potency was active: 10.3 µM.
With `Cc1cc(C)cc(NS(=O)(=O)c2ccc3c(c2)c(=O)n(C)c(=O)n3C)c1` the Potency was active: 8.2 µM.
In the case of `CCOC(=O)CSC1=C(C#N)C(c2ccccc2OCC)C(C(=O)OCC)C(=O)N1` (stereo not drawn), the “activity change, negative = cytotoxic” value is reported as inactive: 25.3%.
In the case of `CN(CCC(=O)Nc1ccc(Cl)cc1)Cc1ccccc1`, the Potency is reported as inconclusive: 20.6 µM [rising, single point].
In the case of `CCc1cccc(C)c1NC(=S)NCc1ccc2c(c1)cc(C)n2C`, the Potency is reported as inconclusive: 29.1 µM [cytotoxic, partial curve, poor fit].
In the case of `CCCc1cc(N2CCCC(C(=O)Nc3ccc(OC)cc3OC)C2)n2ncnc2n1` (stereo not drawn), the Potency is reported as inconclusive: 20.6 µM [cytotoxic, single point].
In the case of `Fc1cccc(COc2ccccc2CNc2ccccc2)c1`, the “activity change, negative = cytotoxic” value is reported as inactive: -10.4%.
With `O=C(NCc1ccccc1)C(c1ccc(F)cc1)N(C(=O)c1csnn1)C1CCCC1` (stereo not drawn) the “activity change, negative = cytotoxic” value was inactive: 2.11%.
